Source: PubChem BioAssay AID248 (DTP/NCI, 2004)
The list shows only some results of the screen, not a fair sample: it gathers tests that were run many times, whatever their T/C, doses with no T/C, and many T/C values between a quarter and a half above the control. Further doses and runs are listed elsewhere. T/C: endpoint of the treated group in % of that of the vehicle group. Some entries give survivors of the animals treated and no T/C: the source files T/C as zero there, which appears to mark a toxic dose or a test without result, not a measured value. Some survivor counts are full or nearly so, which does not show that the dose was tolerated: the source hardly ever lists a survival T/C far under the control, and the zero likely stands for such cases as well. Counts of survivors are from the toxicity check (mostly the fifth day) where no day follows; animals may have died later. Schedule codes are those of the source, read here as Q, the interval in days (D) or hours (H), X, the number of doses. Some schedules carry Z or #; the key to these is not given. Some entries hold several experiments; the results are listed from low to high. Where survival is the endpoint, this PubChem deposit counts one and a half times the control or more as active, and values a quarter to a half above the control carry no call in these data; other NCI protocols may use other cut-offs. Some T/C values are followed by the survivors on the day toxicity was checked, most often the fifth; where none is given, no animal had died by that day.

System: L1210 leukemia ip in BDF1 mice, survival T/C
Assay: NCI In Vivo Anticancer Drug Screen. Data for tumor model L1210 Leukemia (intraperitoneal) in B6D2F1 (BDF1) mice
Conditions: T/C endpoint: mean survival time, higher T/C = longer survival
[1] = dose: 200.0 mg/kg/injection, schedule: Q04DX003 (ip), vehicle: saline
[2] = dose: 400.0 mg/kg/injection, schedule: Q04DX003 (ip), vehicle: saline
[3] = dose: 200.0 mg/kg/injection, schedule: Q01DX009 (ip), vehicle: saline with Tween-80
[4] = dose: 400.0 mg/kg/injection, schedule: Q04DX003 (ip), vehicle: saline with Tween-80
[5] = dose: 50.0 mg/kg/injection, schedule: Q04DX003 (ip), vehicle: acetone
[6] = dose: 60.0 mg/kg/injection, schedule: Q01DX Z (ip), vehicle: methylcellulose (MC)

SMILES: Nc1cc(C(=O)Nc2ccc(C3=NCC(O)CN3)cc2)ccc1C(=O)Nc1ccc(C2=NCC(O)CN2)cc1 (configuration not stated)
- survivor count (dose: 1.25 mg/kg/injection, schedule: Q01DX Z (ip), vehicle: carboxymethylcellulose (CMC)): 0 of 6
- survivor count (dose: 2.5 mg/kg/injection, schedule: Q01DX Z (ip), vehicle: carboxymethylcellulose (CMC)): 1 of 6
- survivor count (dose: 5.0 mg/kg/injection, schedule: Q01DX Z (ip), vehicle: carboxymethylcellulose (CMC)): 0 of 6
- survivor count (dose: 10.0 mg/kg/injection, schedule: Q01DX Z (ip), vehicle: carboxymethylcellulose (CMC)): 2 of 6

SMILES: CCCCN(CCCC)CCN(CCCC)CCN(CCCC)CCCC
- survivor count [1]: 4 of 6
- survivor count [2]: 0 of 6

SMILES: CCN(CC)CCNc1ncnc2[nH]ncc12
- survivor count [1]: 1 of 3
- survivor count [2]: 0 of 3

SMILES: CN(C)C(=O)c1cc(NC(=O)c2ccc(C(=O)Nc3cc(C(=O)N(C)C)cc(C4=NCCN4)c3)cc2)cc(C2=NCCN2)c1
- survivor count (dose: 30.0 mg/kg/injection, schedule: Q01DX015 (ip), vehicle: methylcellulose (MC)): 2 of 6 and 3 of 6
- survivor count (dose: 60.0 mg/kg/injection, schedule: Q01DX015 (ip), vehicle: methylcellulose (MC)): 1 of 6
- survivor count (dose: 120.0 mg/kg/injection, schedule: Q01DX015 (ip), vehicle: methylcellulose (MC)): 1 of 6

SMILES: CC(=O)OC1CC2CC1C1C=CCC21 (configuration not stated)
- survivor count [3]: 4 of 6
- survivor count (dose: 400.0 mg/kg/injection, schedule: Q04DX003 (ip), vehicle: saline sonified): 2 of 6

SMILES: COC(=O)/C=C(\C(=O)OC)N1CCCCC1
- survivor count [3]: 0 of 6
- survivor count (dose: 400.0 mg/kg/injection, schedule: Q01DX009 (ip), vehicle: saline with Tween-80): 2 of 6

SMILES: O=C(NCCCN1CC1)C(=O)Nc1cccnc1
- survivor count (dose: 100.0 mg/kg/injection, schedule: Q04DX003 (ip), vehicle: Klucel (hydroxypropylcellulose) (HPC)): 2 of 6
- survivor count (dose: 200.0 mg/kg/injection, schedule: Q04DX003 (ip), vehicle: Klucel (hydroxypropylcellulose) (HPC)): 0 of 6
- survivor count (dose: 400.0 mg/kg/injection, schedule: Q04DX003 (ip), vehicle: Klucel (hydroxypropylcellulose) (HPC)): 0 of 6

SMILES: CN(C)c1ccc2nc3c(C(=O)O)cc(=O)c(O)c-3oc2c1
- survivor count (dose: 200.0 mg/kg/injection, schedule: Q01DX001 (ip), vehicle: carboxymethylcellulose (CMC)): 2 of 4
- survivor count (dose: 400.0 mg/kg/injection, schedule: Q01DX001 (ip), vehicle: carboxymethylcellulose (CMC)): 0 of 4

SMILES: O=[N+]([O-])c1ccc(O)c(CCl)c1
- survivor count (dose: 400.0 mg/kg/injection, schedule: Q04DX002 (ip), vehicle: DMSO): 2 of 3

SMILES: COc1cc2c(c(OC)c1OC)-c1ccc(SC)c(=O)cc1C(N=Cc1ccccc1)CC2 (configuration not stated)
- survivor count [4]: 0 of 6

SMILES: CC(=O)Cc1cc(C)nc(/N=C(\N)Nc2ccccc2)n1
- survivor count (dose: 400.0 mg/kg/injection, schedule: Q04DX002 (ip), vehicle: Klucel (hydroxypropylcellulose) (HPC)): 1 of 3

SMILES: CCc1cc2c(cc1C(=O)/C=C\C(=O)O)C(C)(C)CCC2(C)C
- survivor count (dose: 15.0 mg/kg/injection, schedule: Q01DX009 (ip), vehicle: saline with Tween-80): 0 of 6
- survivor count (dose: 22.0 mg/kg/injection, schedule: Q01DX001 (ip), vehicle: saline): 0 of 6
- survivor count (dose: 23.0 mg/kg/injection, schedule: Q04DX003 (ip), vehicle: acetone): 1 of 6
- survivor count (dose: 35.0 mg/kg/injection, schedule: Q04DX003 (ip), vehicle: acetone): 0 of 6
- survivor count [5]: 0 of 6

SMILES: C(CC1CO1)C1CO1 (configuration not stated)
- T/C (dose: 16.0 mg/kg/injection, schedule: Q01DX001 (ip), vehicle: acetone): 129 % of control
- T/C (dose: 18.0 mg/kg/injection, schedule: Q01DX Z (ip), vehicle: methylcellulose (MC)): 125 % of control
- survivor count (dose: 21.0 mg/kg/injection, schedule: Q01DX009 (ip), vehicle: acetone): 3 of 6
- T/C (dose: 24.0 mg/kg/injection, schedule: Q01DX009 (ip), vehicle: acetone): 129 % of control
- T/C (dose: 27.0 mg/kg/injection, schedule: Q01DX Z (ip), vehicle: methylcellulose (MC)): 143 % of control
- T/C (dose: 33.0 mg/kg/injection, schedule: Q01DX009 (ip), vehicle: acetone): 136 % of control
- T/C (dose: 36.0 mg/kg/injection, schedule: Q01DX009 (ip), vehicle: acetone): 134 % of control
- T/C (dose: 40.0 mg/kg/injection, schedule: Q01DX Z (ip), vehicle: methylcellulose (MC)): 145 % of control
- T/C (dose: 50.0 mg/kg/injection, schedule: Q01DX001 (ip), vehicle: saline): 136 % of control
- T/C [5]: 126 % of control
- T/C (dose: 54.0 mg/kg/injection, schedule: Q04DX003 (ip), vehicle: acetone): 129 % of control
- T/C [6]: 149 % of control
- survivor count [6]: 4 of 6
- T/C (dose: 66.0 mg/kg/injection, schedule: Q04DX003 (ip), vehicle: saline): 132 % of control
- T/C (dose: 75.0 mg/kg/injection, schedule: Q01DX001 (ip), vehicle: saline): 125 % of control
- survivor count (dose: 90.0 mg/kg/injection, schedule: Q01DX Z (ip), vehicle: methylcellulose (MC)): 1 of 6
- T/C (dose: 100.0 mg/kg/injection, schedule: Q01DX001 (ip), vehicle: saline): 133 % of control [3 of 4 alive]
- T/C (dose: 100.0 mg/kg/injection, schedule: Q04DX003 (ip), vehicle: saline): 128 and 137 % of control
- survivor count (dose: 150.0 mg/kg/injection, schedule: Q01DX009 (ip), vehicle: acetone): 0 of 6
- survivor count (dose: 150.0 mg/kg/injection, schedule: Q04DX003 (ip), vehicle: saline sonified): 3 of 6
- survivor count (dose: 150.0 mg/kg/injection, schedule: Q04DX003 (ip), vehicle: saline): 3 of 6
- survivor count (dose: 200.0 mg/kg/injection, schedule: Q01DX001 (ip), vehicle: saline): 0 of 4
- survivor count (dose: 200.0 mg/kg/injection, schedule: Q04DX003 (ip), vehicle: acetone): 0 of 6
- survivor count (dose: 225.0 mg/kg/injection, schedule: Q01DX009 (ip), vehicle: acetone): 0 of 6
- survivor count (dose: 335.0 mg/kg/injection, schedule: Q01DX009 (ip), vehicle: acetone): 0 of 6
- survivor count (dose: 400.0 mg/kg/injection, schedule: Q01DX001 (ip), vehicle: saline): 0 of 4 and 0 of 6

SMILES: CC(=O)N1CCC(Cc2ccccc2)CC1
- survivor count (dose: 150.0 mg/kg/injection, schedule: Q01DX009 (ip), vehicle: saline with Tween-80): 3 of 6
- survivor count (dose: 300.0 mg/kg/injection, schedule: Q01DX009 (ip), vehicle: saline with Tween-80): 2 of 6

SMILES: N=C(N)N=Nc1c(O)[nH]c(=O)[nH]c1=O
- survivor count (dose: 240.0 mg/kg/injection, schedule: Q01DX Z (ip), vehicle: carboxymethylcellulose (CMC)): 6 of 6
- survivor count (dose: 480.0 mg/kg/injection, schedule: Q01DX Z (ip), vehicle: carboxymethylcellulose (CMC)): 0 of 6

SMILES: COc1cc2c(cc1OC)C(=O)Cc1ccc3c(c1CN(C)CC2)OCO3
- survivor count (dose: 400.0 mg/kg/injection, schedule: Q01DX009 (ip), vehicle: Klucel (hydroxypropylcellulose) (HPC)): 6 of 6

SMILES: c1ccc(NC23CC4CC(CC(C4)C2)C3)cc1
- survivor count [4]: 2 of 6

SMILES: COc1ccc2c(c1)C(=O)CC(C)N2S(=O)(=O)c1ccc(C)cc1 (configuration not stated)
- T/C (dose: 75.0 mg/kg/injection, schedule: Q04DX002 (ip), vehicle: Klucel (hydroxypropylcellulose) (HPC)): 126 % of control

SMILES: O=C(N/N=C/c1ccc(Cl)cc1)C(O)(c1ccccc1)c1ccccc1
- survivor count [3]: 6 of 6

SMILES: O=C(O)c1cnc(Cl)c([N+](=O)[O-])c1
- survivor count [4]: 0 of 6

SMILES: c1cc[c]([Sb]([c]2ccccc2)[n]2ccnc2)cc1
- survivor count (dose: 20.0 mg/kg/injection, schedule: Q04DX002 (ip), vehicle: saline with Tween-80): 0 of 3
- survivor count (dose: 100.0 mg/kg/injection, schedule: Q04DX002 (ip), vehicle: saline with Tween-80): 0 of 3
- survivor count (dose: 200.0 mg/kg/injection, schedule: Q04DX002 (ip), vehicle: saline with Tween-80): 0 of 3
- survivor count (dose: 400.0 mg/kg/injection, schedule: Q04DX002 (ip), vehicle: saline with Tween-80): 0 of 3
